Tested on: rabbit polyclonal antibody #12019-P8
Experiment: Accuracy of measurement of levetiracetam Quality Control samples in the homogeneous enzyme immunoassay
Assay type: binding
Settings: for Mean (μg/mL ± SD): human serum; for Accuracy (%): percentage of the nominal value
Protocol: The levetiracetam derivative antibodies and enzyme conjugates may be advantageously used in a homogeneous assay format to detect levetiracetam in samples. An enzyme immunoassay or ARK Assay, which is a homogeneous enzyme immunoassay experiment, was performed to test antibodies prepared as described in Example 22. The ARK Assay for levetiracetam was conducted using a liquid, ready-to-use, two-reagent kit. A clinical chemistry analyzer useful to set up the assay is HITACHI 917. The HITACHI 917 is an automated biochemistry analyzer used by medical laboratories to process biological fluid specimens, such as urine, cerebrospinal fluid, and most commonly, blood. Manufactured by Boehringer Mannheim, the HITACHI 917 is a commonly used routine chemical chemistry. Levetiracetam containing sample was incubated with antibody reagent followed by the addition of the enzyme conjugate reagent. The enzyme conjugate activity decreases upon binding to the antibody. […] The oxidation of G6P is coupled with the reduction of NAD to NADH, which was measured at 340 nm. The change in the absorbance at 340 nm was measured spectrophotometrically. The levetiracetam concentration in a specimen was measured in terms of G6PDH activity. The increase in the rate at 340 nm was due to the formation of NADH and is proportional to the enzyme conjugate activity. An assay calibration curve was generated using levetiracetam spiked into negative calibrator matrix. The assay rate increases with increasing the concentration of drug in the sample.
Levetiracetam was dissolved in methanol to give a stock solution of 1000 μg/mL. Pooled human serum was aliquoted in 10 mL portions. Levetiracetam stock solution was added to the aliquots of human serum in preparing a series of known concentrations of levetiracetam calibrators ranging from 0 to 100 μg/mL. Similarly, Quality Control samples were prepared (15.0, 35.0 and 75.0 μg/mL). The antibody/substrate reagent #11341P4-6-Ab containing antibody ##12019-P8 was assayed with enzyme reagent #110607-D63-E containing conjugate (44-G6PDH). Calibration curves were generated on the HITACHI 917 automated clinical chemistry analyzer, as described in Example 23 by assaying each level in duplicate.
Three levetiracetam Quality Control samples were prepared as described in Example 24 to give concentrations of levetiracetam of 15.0, 35.0 and 75.0 μg/mL. Enzyme Conjugate Reagent #110607-D63-E containing conjugate (44-G6PDH) and Antibody Reagent #11341P4-6-Ab containing antibody ##12019-P8 was used to generate precision data shown in Table 3. The accuracy data were derived from 2 runs on the same day. Each run for generating a calibration curve includes 10 replicates of each QC level per run with a total of 20 replicates from 2 runs.
Quantification was performed on the HITACHI 917 analyzer as described in Example 23. Also, the accuracy of the measurement was calculated as a percentage of the nominal value of the QC samples (Table 3).

For `CC[C@@H](C(N)=O)N1CCCC1=O` (single isomer, unassigned) [Levetiracetam], the “Mean (μg/mL ± SD)” value (QC Conc. 15.0 μg/mL) was 14.88 ± 1.02 µg/mL, the “Accuracy (%)” value (QC Conc. 15.0 μg/mL) was 99.21% and the “Mean (μg/mL ± SD)” value (QC Conc. 35.0 μg/mL) was 35.77 ± 2.85 µg/mL. The “Accuracy (%)” value (QC Conc. 35.0 μg/mL) was 102.19%, the “Mean (μg/mL ± SD)” value (QC Conc. 75.0 μg/mL) was 77.16 ± 4.48 µg/mL and the “Accuracy (%)” value (QC Conc. 75.0 μg/mL) was 102.88%.
